Assay results: patent US20250066503A1, “CELL INJURY INDUCING THERAPEUTIC DRUG FOR USE IN CANCER THERAPY” (CHUGAI SEIYAKU KABUSHIKI KAISHA, priority 2016, published 2025)

B1: antibody-1: anti-human CD3ε chain and anti-human GPC3 bispecific antibody (antibody)
heavy: EVQLVETGGSLVQPGKSLKLTCATSGFTFSNAWMHWVRQSPEKQLEWVAQIKAKSNNYATYYAESVKGRFTISRDDSKSNIYLQMNSLKEEDTAVYYCRYVHYGAYYGVDAWGQGTSVTVSSASTKGPSVFPLAPSSKSTSGGTAALGCLVKDYFPEPVTVSWNSGALTSGVHTFPAVLQSSGLYSLSSVVTVPSSSLGTQTYICNVNHKPSNTKVDKKVEPKSCDKTHTCPPCPAPEAAGGPSVFLFPPKPKDTLMISRTPEVTCVVVDVSHEDPEVKFNWYVDGVEVHNAKTKPREEQYASTYRVVSVLTVLHQDWLNGKEYKCKVSNKALPAPIEKTISKAKGQPREPQVYTLPPSRCELTKNQVSLSCAVKGFYPSDIAVEWESNGQPENNYKTTPPVLDSDGSFFLVSKLTVDKSRWQQGNVFSCSVMHEALHNHYTQKSLSLSPDYKDDDDK
light: DVVMTQTPVSMSVSLGGQVSISCRSSQSLVHNNGNTYVSWYIQKPSQSPQLLIYKVSNRFSGISDRFSGSGSGTDFTLKISRVEPDDLGVYYCGQGTQDPYTFGAGTKLELKRTVAAPSVFIFPPSDEQLKSGTASVVCLLNNFYPREAKVQWKVDNALQSGNSQESVTEQDSKDSTYSLSSTLTLSKADYEKHKVYACEVTHQGLSSPVTKSFNRGEC
chain 1: DIVMTQSPLSLPVTPGEPASISCRSSQSLVHSNRNTYLHWYQQKPGQAPRLLIYKVSNRFSGVPDRFSGSGSGTDFTLKISRVEAEDVGVYYCSQNTHVPPTFGQGTKLEIKSSASTKGPSVFPLAPSSKSTSGGTAALGCLVKDYFPEPVTVSWNSGALTSGVHTFPAVLQSSGLYSLSSVVTVPSSSLGTQTYICNVNHKPSNTKVDKKVEPKSCDKTHTCPPCPAPEAAGGPSVFLFPPKPKDTLMISRTPEVTCVVVDVSHEDPEVKFNWYVDGVEVHNAKTKPREEQYASTYRVVSVLTVLHQDWLNGKEYKCKVSNKALPAPIEKTISKAKGQPREPQVCTLPPSRDELTKNQVSLWCLVKGFYPSDIAVEWESNGQPENNYKTTPPVLDSDGSFFLYSKLTVDKSRWQQGNVFSCSVMHEALHNHYTQKSLSLSPHHHHHHHH
chain 2: QVQLVQSGAEVKKPGASVKVSCKASGYTFTDYEMHWIRQPPGQGLEWIGAIDPKTGDTAYSQKFKGRVTLTADKSTSTAYMELSSLTSEDTAVYYCTRFYSYTYWGQGTLVTVSSASVAAPSVFIFPPSDEQLKSGTASVVCLLNNFYPREAKVQWKVDNALQSGNSQESVTEQDSKDSTYSLSSTLTLSKADYEKHKVYACEVTHQGLSSPVTKSFNRGEC
B2: antibody-31: optimized anti-human CD3ε chain and anti-human GPC3 bispecific antibody (antibody)
heavy 1: QVQLVESGGGVVQPGGSLRLSCAASGFTFSNAWMHWVRQAPGKGLEWVAQIKDKSQNYATYYAESVKGRFTISRADSKNSIYLQMNSLKTEDTAVYYCRYVHYAAGYGVDIWGQGTTVTVSSASTKGPSVFPLAPCSRSTSESTAALGCLVKDYFPEPVTVSWNSGALTSGVHTFPAVLQSSGLYSLSSVVTVPSSSLGTKTYTCNVDHKPSNTKVDKRVESKYGPPCPPCPAPEFRGGPKVFLFPPKPKDTLMISRTPEVTCVVVDVSQEDPEVQFNWYVDGVEVHNAKTKPREEQFASTYRVVSVLTVLHQDWLNGKEYKCKVSNKGLPSSIEKTISKAKGQPREPQVYTLPPSQKEMTKNQVSLTCLVKGFYPSDIAVEWESNGQPENNYKTTPPVLDSDGSFFLYSKLTVDKSRWQEGNVFSCSVMHEALHNRYTQKSLSLSP
heavy 2: QVQLVQSGAEVKKPGASVTVSCKASGYTFTDYEMHWVRQAPGEGLEWMGAIDGETPDTAYSEKFKGRVTLTADKSTSTAYMELSSLTSEDTAVYYCTRFYSYTYWGQGTLVTVSSASTKGPSVFPLAPCSRSTSESTAALGCLVKDYFPEPVTVSWNSGALTSGVHTFPAVLQSSGLYSLSSVVTVPSSSLGTQTYTCNVDHKPSNTKVDKRVESKYGPPCPPCPAPEFRGGPKVFLFPPKPKDTLMISRTPEVTCVVVDVSQEDPEVQFNWYVDGVEVHNAKTKPREEQFASTYRVVSVLTVLHQDWLNGKEYKCKVSNKGLPSSIEKTISKAKGQPREPQVYTLPPSQEEMTKNQVSLTCLVKGFYPSDIAVEWESNGQPENNYKTTPPVLDSDGSFFLYSKLTVDKSRWQEGNVFSCSVMHEALHNHYTQESLSLSP
light: DIVMTQSPLSLPVTPGEPASISCRSSQPLVHSNRNTYLHWYQQKPGQAPRLLIYKVSNRFSGVPDRFSGSGSGTDFTLKISRVEAEDVGVYYCGQGTQVPYTFGQGTKLEIKRTVAAPSVFIFPPSDEQLKSGTASVVCLLNNFYPREAKVQWKVDNALQSGNSQESVTEQDSKDSTYSLSSTLTLSKADYEKHKVYACEVTHQGLSSPVTKSFNRGEC
B3: antibody-38: anti-human CD3ε chain and anti-human GPC3 bispecific antibody; H chains SEQ ID NO: 385 and 402, common L chains SEQ ID NO: 410 (antibody)
heavy 1: B2 heavy 2 with V37I, A40P, M48I, E54P
heavy 2: B2 heavy 1 with Y62V, R437H
light: B2 light
modifications: An artificially generated sequence
B4: antibody-34: optimized anti-human CD3ε chain and anti-human GPC3 bispecific antibody (antibody)
heavy 1: B2 heavy 1 with V11L, G16R, Y62V, A75D, I81L, I111A
heavy 2: B2 heavy 2
light: B2 light
B5: antibody-30: optimized anti-human CD3ε chain and anti-human GPC3 bispecific antibody (antibody)
heavy 1: B2 heavy 1 with V11L, G16R, A75D, I81L, I111A
heavy 2: B2 heavy 2
light: B2 light
B6: antibody-15: optimized anti-human CD3ε chain and anti-human GPC3 bispecific antibody (antibody)
heavy 1: B2 heavy 1 with V11L, G16R, A104S, G106S, I111A
heavy 2: B2 heavy 2 with T19K, V37I, A40P, E43Q, M48I, E54K, E62Q
light: B2 light with P28S, L29P, L38I
B7: antibody-14: optimized anti-human CD3ε chain and anti-human GPC3 bispecific antibody (antibody)
heavy 1: B2 heavy 1 with V11L, G16R, A104S, G106S, I111A
heavy 2: B2 heavy 2 with T19K, V37I, A40P, E43Q, M48I, E54K, E62Q
light: B2 light with L29P
B8: antibody-35: optimized anti-human CD3ε chain and anti-human GPC3 bispecific antibody (antibody)
heavy 1: B2 heavy 1 with V11L, G16R, Y62V, A75D, I81L, I111A
heavy 2: B2 heavy 2 with V37I, A40P, M48I, E54P
light: B2 light
B9: antibody-25: optimized anti-human CD3ε chain and anti-human GPC3 bispecific antibody (antibody)
heavy 1: B2 heavy 1 with V11L, G16R, A75D, I81L, G106S, I111A
heavy 2: B2 heavy 2 with V37I, A40P, M48I
light: B2 light with L29P
B10: antibody-13: optimized anti-human CD3ε chain and anti-human GPC3 bispecific antibody (antibody)
heavy 1: B2 heavy 1 with V11L, G16R, A104S, G106S, I111A
heavy 2: B2 heavy 2 with T19K, V37I, A40P, E43Q, M48I, E54K, E62Q
light: B2 light with P28S
B11: antibody-27: optimized anti-human CD3ε chain and anti-human GPC3 bispecific antibody (antibody)
heavy 1: B2 heavy 1 with V11L, G16R, A75D, I81L, G106S, I111A
heavy 2: B2 heavy 2 with V37I, A40P, M48I
light: B2 light with P28S, L29P, L38I, H39Q, G94Y
B12: antibody-29: optimized anti-human CD3ε chain and anti-human GPC3 bispecific antibody (antibody)
heavy 1: B2 heavy 1 with V11L, G16R, A75D, I81L, I111A
heavy 2: B2 heavy 2
light: B2 light with L29P

System: extracellular matrix (BD Matrigel)
Assay: Assessment of the ECM-binding ability (ECL on BD Matrigel)
Conditions: fluorescence intensity relative to standard antibody MRAH-G1d/MRAL-k0

Row | Molecule | ECM binding ratio (standard = 1)
1 | B1 | 4.0
2 | B2 | 1.2
3 | B3 | 0.3
4 | B4 | 0.4
5 | B5 | 0.7
6 | B6 | 0.8
7 | B7 | 0.8
8 | B8 | 0.7
9 | B9 | 0.5
10 | B10 | 0.8
11 | B11 | 0.6
12 | B12 | 1.1

Positions count from the first letter of the chain named.
